The nature of this assay: qHTS Assay for Modulators of Lamin A Splicing. The following applies: HeLa LMNA splicing GFP/RFP minigene ratio, 48 h. Summed up: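 Read-out is the ratio of GFP to DsRed2 object intensity, acquired by 488 nm laser-scanning cytometry on HeLa lamin A-EGFP minigene reporter cells. Compound incubation 48 hrs at 37 °C in Opti-MEM with 2% FBS; DMSO 0.5% final.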
(In qHTS, concentration-response curves come from the screen itself.)

Where [1] appears, read: measured here: RFP viability control channel.
The mark [2] stands for this setting: measured here: GFP splicing reporter channel.

Experimental findings from PubChem BioAssay AID1487 (National Center for Advancing Translational Sciences (NCATS), 2009) are described below.

This is one part of the list. The main result of the screen is listed elsewhere. These columns were measured beside it and carry no call. Most of these compounds were active or inconclusive in the main read-out, so they are no random draw. The note in brackets gives the kind of curve behind each potency; many fits are weak.

A word on the AC50: it is the midpoint of the concentration-response curve, whichever way the signal moves. Take `Cc1nn(-c2ccccc2)nc1CNC(=O)C(C)Cc1ccccc1` (stereo not given): the AC50 under setting [1] was 0.891 µM [rising, full curve].
As to `O=c1cnc2cnc(Nc3ccccc3)nc2n1CCc1ccccc1`, the half-maximal activity concentration (AC50) reads like this: under setting [2], 35.5 µM [falling, single point]; under setting [1], 35.5 µM [falling, single point].
Consider `CCCC12CN3CC(CCC)(CN(C1)C3c1ccccc1)C2=O` (stereo not given), for which the AC50 under setting [2] was 0.0224 µM [falling, full curve, poor fit].
Take `CCOC(=O)c1cc(S(=O)(=O)N2CCN(c3ccc(C(C)=O)cc3)CC2)[nH]n1`: under setting [1], the concentration at half-maximal activity (AC50) was 22.4 µM [rising, single point].
Still for that read-out and setting: the result for `COc1ccc(C2(CNC(=O)c3cccc([N+](=O)[O-])c3)CCCCC2)cc1OC` reads 35.5 µM [rising, single point]; that for `Cn1c(-c2ccccc2)cnc1SCC(N)=O`, 2.82 µM [rising, partial curve].
Still for that read-out and setting: the result for `COc1ccc(CN(C(=O)c2nsc(Cl)c2Cl)C(C(=O)NC2CCCC2)c2ccc(OC)cc2)cc1` (stereo not given) reads 12.6 µM [rising, partial curve].
As for `COc1ccc(N2CC(NC(=O)c3ccco3)CC2=O)cc1` (stereo not given), the AC50 runs as follows: under setting [2], 35.5 µM [falling, partial curve, poor fit]; under setting [1], 0.794 µM [falling, full curve, poor fit].
As for `O=c1onc2n1-c1cc(Br)ccc1OC2`, the concentration at half-maximal activity (AC50) under setting [1] was 0.000891 µM [falling, full curve, poor fit].
For the compound `COc1ccccc1NC(=O)C1CCN(C(=O)c2sc3nc[nH]c(=O)c3c2C)CC1`, under setting [2], the AC50 is 6.31 µM [rising, partial curve].
In the case of `COc1ccc(C2=NCC(CSc3nnnn3C)S2)cc1` (stereo not given), under setting [1], the AC50 is 35.5 µM [falling, single point].
The same measure, in the same setting: the result for `C=CCNC(=O)COC(=O)/C=C/c1cccs1` reads 5.62 µM [rising, partial curve, poor fit].
As for `COc1ccc(Nc2cc(C)c3ccccc3n2)cc1`, the half-maximal activity concentration (AC50) is 0.00501 µM [falling, full curve, poor fit] under setting [2] and 0.00708 µM [falling, full curve, poor fit] under setting [1].
In the case of `COc1cc(Cl)c(NS(=O)(=O)c2ccc(-c3cnc(C4CC4)o3)cc2)c(OC)c1`, the concentration at half-maximal activity (AC50) under setting [1] is 0.501 µM [rising, full curve].
Take `O=C(CN1c2cccc3cccc(c23)S1(=O)=O)NCc1ccc2c(c1)OCO2`: the concentration at half-maximal activity (AC50) under setting [1] was 12.6 µM [rising, partial curve].
`O=C(COc1ccc([N+](=O)[O-])cc1)Nc1ccc(N2CCCC2)cc1`: the AC50 under setting [2] is 3.98 µM [rising, partial curve, poor fit] and the concentration at half-maximal activity (AC50) under setting [1] was 0.178 µM [rising, full curve, poor fit].
